Values from PubChem BioAssay AID1159584 (Peter MacCallum Cancer Centre, 2016)
Screen: 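Genes that CDH1-null MCF10A cells selectively depend on to survive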 (primary screen). System: human MCF10A breast epithelial cells, parental and CDH1-null. Knock-down reagent: siRNA against human genes. Measurement: 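ATP luminescence (CellTiter-Glo) viability per line relative to mean mock wells over all plates, and the ratio of CDH1-null to parental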. Reading the numbers: CDH1-null / parental viability ratio: higher = CDH1-null cells survive relatively better than parental.
The whole screen tested about 18,000 reagents; shown is a part drawn at random. Not all columns of the deposit are shown. Not given: the amount of reagent, the time to read-out.

gene	CDH1-null / parental viability ratio
GRB7 (growth factor receptor bound protein 7)	1.2
CCT8 (chaperonin containing TCP1 subunit 8)	0.87
ZNF585A (zinc finger protein 585A)	1.12
ST7L (suppression of tumorigenicity 7 like)	0.9
FMC1 (formation of mitochondrial complex V assembly factor 1)	0.84
TMEM163 (transmembrane protein 163)	1
SRSF3 (serine and arginine rich splicing factor 3)	1
DTWD1 (DTW motif tRNA-uridine aminocarboxypropyltransferase 1)	0.95
CDX4 (caudal type homeobox 4)	1.13
PDE4D (phosphodiesterase 4D)	1.11
VPS52 (VPS52 subunit of GARP complex)	1.51
GABRA3 (gamma-aminobutyric acid type A receptor subunit alpha3)	1.35
UNC119 (unc-119 lipid binding chaperone)	1.07
GPATCH2 (G-patch domain containing 2)	0.81
CNOT3 (CCR4-NOT transcription complex subunit 3)	1.52
LINC02872 (long independently transcribed non-coding RNA 2872)	1.05
MORF4L1 (mortality factor 4 like 1)	1.67
TIMELESS (timeless circadian regulator)	1.54
PYROXD2 (pyridine nucleotide-disulphide oxidoreductase domain 2)	0.94
SHLD2 (shieldin complex subunit 2)	1.31
MRPL46 (mitochondrial ribosomal protein L46)	1.11
BEND7 (BEN domain containing 7)	1
HMGN1 (high mobility group nucleosome binding domain 1)	0.77
ZNF432 (zinc finger protein 432)	1.4
VNN3P (vanin 3, pseudogene)	0.89
AGPAT4 (1-acylglycerol-3-phosphate O-acyltransferase 4)	0.98
GPR149 (G protein-coupled receptor 149)	0.8
RALGAPB (Ral GTPase activating protein non-catalytic subunit beta)	1.22
PLAAT2 (phospholipase A and acyltransferase 2)	0.74
ERGIC1 (endoplasmic reticulum-golgi intermediate compartment 1)	1
COASY (Coenzyme A synthase)	0.98
PIGU (phosphatidylinositol glycan anchor biosynthesis class U)	0.9
PKIG (cAMP-dependent protein kinase inhibitor gamma)	1.05
PABPN1L (PABPN1 like, cytoplasmic)	1.22
SLC27A1	1.07
GABPA (GA binding protein transcription factor subunit alpha)	1.52
ZFP36 (ZFP36 zinc finger CCCH-type)	0.99
MBTPS2 (membrane bound transcription factor peptidase, site 2)	1.1
INTS6L (integrator complex subunit 6 like)	1.3
ACRV1 (acrosomal vesicle protein 1)	0.94
MTM1 (myotubularin 1)	1.95
GLI1 (GLI family zinc finger 1)	1.43
RPS6KA5 (ribosomal protein S6 kinase A5)	0.93
FCGR2C (Fc gamma receptor IIc (gene/pseudogene))	1.07
PARL (presenilin associated rhomboid like)	0.91
FABP1 (fatty acid binding protein 1)	0.92
CATSPER4 (cation channel sperm associated 4)	1.36

Continued (2 carried over from the part before).
gene	CDH1-null / parental viability ratio
FABP1 (fatty acid binding protein 1)	0.92
CATSPER4 (cation channel sperm associated 4)	1.36
MTCP1 (mature T cell proliferation 1)	0.9
OR6C68 (olfactory receptor family 6 subfamily C member 68)	1.21
RAB28 (RAB28, member RAS oncogene family)	0.92
TIFA (TRAF interacting protein with forkhead associated domain)	0.84
SYVN1 (synoviolin 1)	0.96
YIPF3 (Yip1 domain family member 3)	1.3
ABHD16B (abhydrolase domain containing 16B)	0.92
NSUN2 (NOP2/Sun RNA methyltransferase 2)	1.14
PHF21A (PHD finger protein 21A)	0.96
IFNGR2 (interferon gamma receptor 2)	1.11
IMPG1 (interphotoreceptor matrix proteoglycan 1)	0.63
RSPRY1 (ring finger and SPRY domain containing 1)	0.92
ST8SIA5 (ST8 alpha-N-acetyl-neuraminide alpha-2,8-sialyltransferase 5)	1.04
RRM2B	1.31
NOX4 (NADPH oxidase 4)	1.01
LINC01599 (long independently transcribed non-coding RNA 1599)	1.36
PYCR1 (pyrroline-5-carboxylate reductase 1)	1.15
PCDH20 (protocadherin 20)	0.93
FLG (filaggrin)	1.03
ALS2CL (ALS2 C-terminal like)	0.74
DNLZ (DNL-type zinc finger)	0.97
PDE4DIP (phosphodiesterase 4D interacting protein)	0.75
NEURL4 (neuralized E3 ubiquitin protein ligase 4)	1.37
RNF187 (ring finger protein 187)	0.75
TBC1D28 (TBC1 domain family member 28)	1.43
TAFA3 (TAFA chemokine like family member 3)	0.9
IL18RAP (interleukin 18 receptor accessory protein)	1.02
GJB5 (gap junction protein beta 5)	0.96
F13B (coagulation factor XIII B chain)	0.88
CENPC (centromere protein C)	1.19
OR2M4 (olfactory receptor family 2 subfamily M member 4)	1.38
LMX1B (LIM homeobox transcription factor 1 beta)	1.05
TSHR (thyroid stimulating hormone receptor)	0.97
TCEAL1 (transcription elongation factor A like 1)	0.83
C9orf85 (chromosome 9 open reading frame 85)	0.83
DRICH1 (aspartate rich 1)	0.85
ZNF234 (zinc finger protein 234)	1
BIRC6 (baculoviral IAP repeat containing 6)	1.2
TM4SF4 (transmembrane 4 L six family member 4)	0.8
EDNRB (endothelin receptor type B)	1.29
